The campaign covered roughly 360,000 compounds. About 7,500 (2.1%) were called active. The shares of active, inactive and inconclusive entries below differ from those in the screen. The call rests on the fitted dose curve; in most records, active means well fitted inhibition curve with a large enough effect; inconclusive means small, poorly fitted or top-dose-only effect, or effect the other way; inactive means flat fitted curve, though single readings scatter. Potencies beside an inconclusive call are fits to weak or partial responses and may not hold up.
Assay: Nrf2 qHTS screen for inhibitors; further: nearly all actives have a fitted effect of over 60% in size
Conditions: A549 ARE-Fluc reporter, luciferase luminescence, 18-24 h; activity change, negative = inhibition: at 46 µM (top of the series)
Method in brief: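 Concentration-response testing used A549 ARE_Fluc cells at 5000 cells/well. Following an 18-24 h compound incubation, viability was read by fluorescence (Ex 405/Em 525) and luciferase output by luminescence.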
For `O=C(Nc1c(Cl)cc2c(c1Cl)Cc1cc([N+](=O)[O-])ccc1-2)C(Cl)Cl`, the “activity change, negative = inhibition” value was inactive: -5.46%. For `CCOC(=O)c1sc(N2C(=O)c3oc4ccc(F)cc4c(=O)c3C2c2cccc(OC)c2)nc1C` (stereo unspecified), the “activity change, negative = inhibition” value was inactive: -14.3%. In the case of `CCN(C(=O)Cn1c(SCc2ccccc2F)nc2cccnc21)c1ccccc1`, the “activity change, negative = inhibition” value is reported as inactive: 25%. For `CC(C)Cc1nc2oc3c(=O)[nH]cnc3c2c2c1CCC2`, the “activity change, negative = inhibition” value was inactive: 3.52%. In the case of `N/C(=N\c1nc2c(c(=O)[nH]1)CCC2)Nc1cccc(Cl)c1`, the Potency is reported as inconclusive: 29.1 µM [falling, single point]. In the case of `CCCCN1C(=O)/C(=C/C=C2\Oc3ccccc3N2CC)SC1=S`, the “activity change, negative = inhibition” value is reported as inactive: -9.65%. With `O=C(OCCN1CCCC1=O)c1cncc(Br)c1` the Potency was inconclusive: 1.16 µM [falling, partial curve, poor fit]. For `O=C(OCc1ccccc1)c1ccc(-c2nnn(Cc3ccccc3F)n2)cc1`, the Potency was inconclusive: 1.16 µM [activator, full curve]. With `C/C(CC(=O)Nc1cccc(C(F)(F)F)c1)=N\NC(=O)C1CCCCC1` the Potency was inconclusive: 20.6 µM [activator, partial curve, poor fit]. For `COc1ccc2nc(Nc3nc(C)c(C(C)=O)s3)sc2c1`, the Potency was inconclusive: 18.4 µM [activator, partial curve, poor fit]. With `O=C(c1ccc2c(c1)N(Cc1ccccc1F)C(=O)c1ccccc1S2(=O)=O)N1CCCCCC1` the Potency was inconclusive: 13 µM [falling, partial curve, poor fit]. With `CN(c1cccc(Cl)c1)S(=O)(=O)c1cccc(C(=O)NC2=NCCS2)c1` the Potency was inconclusive: 25.9 µM [falling, single point]. With `N/C(=N\OC(=O)c1ccc(Br)cc1)c1ccncc1` the Potency was inconclusive: 29.1 µM [activator, single point]. With `Cc1ccc(C(=O)NC(=S)Nc2ccc(N3CCN(C(=O)c4ccco4)CC3)cc2)cc1` the Potency was inconclusive: 23.1 µM [falling, single point]. For `CCOc1ccc(CCNC(=O)c2ccc(Cn3c(=O)c4cccn4c4cccnc43)cc2)cc1`, the Potency was active: 11.6 µM. In the case of `COc1ccc(S(=O)(=O)Nc2cc(C(=O)NC3CCCCCC3)ccc2N2CCOCC2)cc1`, the Potency is reported as active: 18.4 µM. In the case of `O=[N+]([O-])c1cccc(-n2cccc2/C=N/Nc2nc(N3CCCCC3)nc(N3CCCCC3)n2)c1`, the Potency is reported as inconclusive: 29.1 µM [falling, single point]. With `Cc1ccc(C)c(Cn2c(=O)n(-c3ccc(CC(=O)NCc4ccco4)cc3)c(=O)c3sccc32)c1` the Potency was inconclusive: 29.1 µM [falling, partial curve, poor fit]. For `Cc1cc(NC(=O)Nc2cccc(C(F)(F)F)c2)no1`, the Potency was inconclusive: 3.26 µM [falling, full curve]. With `Cc1cc2n(n1)SC(Nc1ccc(F)c(Cl)c1)N2` (stereo unspecified) the “activity change, negative = inhibition” value was inactive: 1.83%. In the case of `Cc1nn(-c2nc3ccccc3[nH]2)c(N)c1-c1ccccc1`, the Potency is reported as inconclusive: 20.6 µM [activator, single point]. With `Cc1ccc(N(C(=O)Nc2ccccc2)C2=NCCC2)cc1` the Potency was inconclusive: 20.6 µM [activator, single point]. In the case of `O=C(NCc1ccco1)c1ccc(Cl)c(S(=O)(=O)N2CCc3ccccc32)c1`, the Potency is reported as active: 23.1 µM. In the case of `CCn1c(CC(=O)Nc2ccccc2F)nnc1SCC(=O)Nc1nnc(C)s1`, the Potency is reported as inconclusive: 23.1 µM [falling, single point]. In the case of `O=C(CSc1nc2c(c(=O)[nH]1)CCCC2)Nc1cccc(O)c1`, the Potency is reported as inconclusive: 29.1 µM [falling, single point]. In the case of `CCC(=Nc1ccccc1OC)C1=C(O)CC(c2ccccc2)CC1=O` (stereo unspecified), the Potency is reported as inconclusive: 32.6 µM [activator, partial curve, poor fit]. For `O=C(Nc1ccc2c(c1)OCO2)c1c(Cl)nc2sccn12`, the Potency was inconclusive: 1.3 µM [activator, full curve, poor fit]. For `Cc1cc(OCCn2c(C3CC(=O)N(Cc4ccc(F)cc4)C3)nc3ccccc32)ccc1Cl` (stereo unspecified), the “activity change, negative = inhibition” value was inactive: 0.147%. With `O=C(CSc1nc(-c2ccco2)nc2cc(=O)[nH]n12)Nc1ccccc1Cl` the “activity change, negative = inhibition” value was inactive: 0%. In the case of `Cc1ccc2c(c1)c(N=NC(N)=O)c(O)n2C`, the Potency is reported as inconclusive: 7.31 µM [activator, partial curve]. In the case of `O=C1c2ccccc2C(=O)c2[nH]c(=O)[nH]c21`, the Potency is reported as active: 20.6 µM. In the case of `COc1ccc(C(NC(=O)C2CCCCC2)c2c(O)ccc3ccccc23)cc1` (stereo unspecified), the Potency is reported as inconclusive: 32.6 µM [falling, single point]. In the case of `O=C(NCCC1CCCCN1S(=O)(=O)c1cccs1)C(=O)Nc1ccc(F)cc1` (stereo unspecified), the Potency is reported as inconclusive: 32.6 µM [falling, single point]. In the case of `O=[N+]([O-])c1cccc(S(=O)(=O)N2CCCCC2)c1`, the Potency is reported as inconclusive: 2.59 µM [falling, full curve, poor fit]. In the case of `O=C(CN(C(=O)c1cccc([N+](=O)[O-])c1)C1CCCCC1)Nc1ccc(Cl)c([N+](=O)[O-])c1`, the Potency is reported as inconclusive: 25.9 µM [falling, single point]. For `COc1ccc2c(c1)c(C(=O)CN1CCN(C(=O)c3ccco3)CC1)c(C)n2C`, the “activity change, negative = inhibition” value was inactive: -8.35%. For `S=C(NCCC(c1ccccc1)c1ccccc1)Nc1ccc(Cl)cc1`, the Potency was inconclusive: 29.1 µM [falling, single point]. In the case of `Cc1ccc(Cl)cc1N1CCN(C(=O)C2CCC(=O)N(C3CCCCCC3)C2)CC1` (stereo unspecified), the Potency is reported as inconclusive: 14.6 µM [falling, partial curve, poor fit]. With `CS(=O)(=O)c1cnc2c(-c3ccc(F)cc3)cnn2c1N` the Potency was inconclusive: 0.0731 µM [activator, full curve, poor fit]. For `Cc1ccc(C)c(N2CCN(CCCNC(=O)Cn3c(-c4cccs4)cc4ccccc43)CC2)c1`, the Potency was inconclusive: 29.1 µM [falling, single point]. For `CC(C)(C)NC(=S)N/N=C\c1ccc(-c2ccc([N+](=O)[O-])cc2)o1`, the Potency was inconclusive: 29.1 µM [falling, single point]. For `CCOc1cc(C(=O)NC(C)CCc2ccccc2)cc(OCC)c1OCC` (stereo unspecified), the Potency was inconclusive: 29.1 µM [falling, single point]. For `O=C(Nc1cccc(S(=O)(=O)N2CCCC2)c1)c1cccc(OC(F)F)c1`, the Potency was inconclusive: 29.1 µM [falling, single point]. For `CC1CCN(C(=O)COc2cccc3c2CCN(C)C3=O)CC1`, the Potency was inconclusive: 32.6 µM [falling, partial curve, poor fit]. In the case of `O=C1c2cc(S(=O)(=O)N3CCOCC3)ccc2-c2ccc(S(=O)(=O)N3CCOCC3)cc21`, the “activity change, negative = inhibition” value is reported as inactive: 11.1%. In the case of `CN(C)c1ccc(CNc2nc(-c3ccco3)nn2S(=O)(=O)c2ccc(Cl)cc2)cc1`, the Potency is reported as inconclusive: 3.66 µM [activator, full curve, poor fit]. With `O=c1c([N+](=O)[O-])c(NC2CCCCC2)c2ccccc2n1-c1ccccc1` the Potency was inconclusive: 29.1 µM [falling, single point]. With `O=C(/C=C/c1ccco1)Nc1cc(Cl)ccc1C(=O)O` the “activity change, negative = inhibition” value was inactive: -23.5%. For `COc1cccc(NC(=S)NNC(=O)c2ccccc2OC(F)F)c1`, the Potency was inconclusive: 4.11 µM [activator, partial curve, poor fit]. In the case of `CN1CCN(/C=N/c2c(C#N)cnn2Cc2ccccc2)CC1`, the “activity change, negative = inhibition” value is reported as inactive: 16.7%. For `COc1nc(-c2cccc([N+](=O)[O-])c2)nc2ccccc12`, the “activity change, negative = inhibition” value was inactive: 0.791%. With `CCOC(=O)c1cc(C)n(S(=O)(=O)c2ccc(C)cc2)c1C` the Potency was inconclusive: 25.9 µM [falling, single point]. In the case of `Cc1ccc2c(NC(=O)c3ccc(Br)o3)cccc2n1`, the “activity change, negative = inhibition” value is reported as inactive: -8.02%. For `COc1cc(NC(=O)c2cccc(Cl)c2)c(OC)cc1NC(=O)CN1CCCCC1`, the Potency was inconclusive: 20.6 µM [falling, partial curve, poor fit]. With `Cc1ccc(C(c2sc3nc(C)nn3c2O)N2CCN(c3ccccc3F)CC2)cc1` (stereo unspecified) the Potency was inconclusive: 13 µM [falling, partial curve, poor fit]. In the case of `Cc1ccc(S(=O)(=O)N[C@H](C(=O)OCn2nnc3ccccc3c2=O)C(C)C)cc1`, the Potency is reported as inconclusive: 18.4 µM [falling, partial curve]. For `CCN(C(=O)CSc1nnc(-c2ccc(Cl)cc2)o1)c1ccccc1`, the Potency was inconclusive: 29.1 µM [falling, single point]. In the case of `CCOc1ccc(NC(=O)c2ccc(NC(=O)c3ccc(NC(N)=O)cc3)cc2)cc1`, the Potency is reported as inconclusive: 2.59 µM [activator, full curve, poor fit]. With `O=C(c1ccccc1)N1CCOC(O)(c2ccccc2)C1c1ccccc1` (stereo unspecified) the Potency was inconclusive: 29.1 µM [falling, single point]. With `O=C(CN1C(=O)NC2(CCCC2)C1=O)NNC(=O)c1ccc(F)cc1` the Potency was inconclusive: 11.6 µM [falling, partial curve, poor fit]. With `COc1ccc(CNC(=O)c2c(N)n(CCCN3CCOCC3)c3nc4ccccc4nc23)cc1` the Potency was active: 16.4 µM. With `c1ccc(OCCN2CCN(Cc3nc(-c4ccc5c(c4)OCO5)no3)CC2)cc1` the Potency was inconclusive: 14.6 µM [falling, partial curve, poor fit]. With `CCOC(=O)Cc1csc(NC(=O)Cc2ccccc2)n1` the “activity change, negative = inhibition” value was inactive: 5.67%. In the case of `CCOc1ccc(NS(=O)(=O)c2ccc3[nH]c(=O)oc3c2)cc1`, the Potency is reported as inconclusive: 29.1 µM [falling, partial curve, poor fit]. With `COc1ccc(-c2cc(C(F)(F)F)nc(S(=O)(=O)CCCC(=O)Nc3ccccc3C(F)(F)F)n2)cc1OC` the activity change, negative = inhibition was inactive: 5.54% [at 9.27 µM]. With `COc1ccccc1CNc1nc(-c2ccco2)nn1C(=O)c1ccccc1[N+](=O)[O-]` the Potency was inconclusive: 20.6 µM [activator, single point].
On the % scale 0 is the no-effect control and ±100 the full control effect; potency means the concentration at half of the fitted maximal effect.
